Data as given in PubChem BioAssay AID1259254 (NCATS, 2017).

Screen: 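Gene knock-downs that lead to re-replication, shown by excess G2 DNA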 (primary screen)
Cell system: human HCT116 colorectal cancer cells
Reagent: single siRNA against human genes
Duration: 3 days
Measured: 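Nuclei stained with Hoechst and imaged; cell-cycle phase assigned by DNA content; G2 share scaled per plate, non-targeting siRNA 0%, GMNN siRNA 100%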
Scale: G2 robust z-score and G2 cells, % of GMNN control: higher = more G2 cells, more excess DNA replication
Call rule: 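Active siRNAs have a G2 robust z of 5 or more median absolute deviations over the median, which in these data means about 38% or higher of GMNN control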
Here is one part, drawn at random, of about 59,000 reagents tested. About 1,550 of them (2.6%) were called active. 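G2 share is only a proxy for re-replication; each gene was hit by three separate siRNAs, and active genes were retested.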 The numbers tell different reagents against one gene apart. Further read-outs or replicates are left out here. No sequences are given here. Not stated in the record: the amount of reagent.

| gene | siRNA no. | G2 robust z-score | G2 cells, % of GMNN control | Call |
| --- | --- | --- | --- | --- |
| LRRC8A | 1 | -0.655 | -1.64 | inactive |
| LRRC8A | 2 | -0.765 | -2.42 | inactive |
| LRRC8A | 3 | -0.124 | 2.09 | inactive |
| APOBEC3B | 1 | -0.643 | -1.56 | inactive |
| APOBEC3B | 2 | -0.838 | -2.93 | inactive |
| APOBEC3B | 3 | 0.856 | 8.99 | inactive |
| TPPP3 | 1 | -0.87 | -3.15 | inactive |
| TPPP3 | 2 | -0.752 | -2.32 | inactive |
| TPPP3 | 3 | 0.675 | 7.72 | inactive |
| SEC61A1 | 1 | 2.18 | 18.3 | inactive |
| SEC61A1 | 2 | 4.06 | 31.5 | inactive |
| SEC61A1 | 3 | 2.94 | 23.7 | inactive |
| KCTD20 | 1 | -0.467 | -0.316 | inactive |
| KCTD20 | 2 | -0.718 | -2.09 | inactive |
| KCTD20 | 3 | 0.0217 | 3.12 | inactive |
| HSPB3 | 1 | 3.25 | 25.8 | inactive |
| HSPB3 | 2 | 0.649 | 7.53 | inactive |
| HSPB3 | 3 | -0.305 | 0.82 | inactive |
| CD22 | 1 | -0.615 | -1.36 | inactive |
| CD22 | 2 | 0.195 | 4.34 | inactive |
| CD22 | 3 | 1.22 | 11.6 | inactive |
| EAPP | 1 | 0.316 | 5.19 | inactive |
| EAPP | 2 | -0.347 | 0.528 | inactive |
| EAPP | 3 | 2.08 | 17.6 | inactive |
| BEND2 | 1 | -0.59 | -1.18 | inactive |
| BEND2 | 2 | 2.01 | 17.1 | inactive |
| BEND2 | 3 | -0.191 | 1.62 | inactive |
| SPTSSB | 1 | 0.703 | 7.91 | inactive |
| SPTSSB | 2 | -0.722 | -2.11 | inactive |
| SPTSSB | 3 | 2.05 | 17.4 | inactive |
| LYNX1 | 1 | 2.25 | 18.8 | inactive |
| LYNX1 | 2 | 0.557 | 6.89 | inactive |
| LYNX1 | 3 | 0.121 | 3.82 | inactive |
| PICK1 | 1 | 1.35 | 12.5 | inactive |
| PICK1 | 2 | 0.416 | 5.9 | inactive |
| PICK1 | 3 | -0.474 | -0.368 | inactive |
| FAM240C | 1 | -0.714 | -2.05 | inactive |
| FAM240C | 2 | 0.654 | 7.57 | inactive |
| FAM240C | 3 | -0.184 | 1.68 | inactive |
| SLC35A5 | 1 | -0.342 | 0.559 | inactive |
| SLC35A5 | 2 | -0.755 | -2.34 | inactive |
| SLC35A5 | 3 | -1.05 | -4.4 | inactive |
| RCOR1 | 1 | 6.49 | 48.7 | active |
| RCOR1 | 2 | -0.995 | -4.03 | inactive |
| RCOR1 | 3 | 1.71 | 15 | inactive |
| TKTL2 | 1 | 4.68 | 35.9 | inactive |
| TKTL2 | 2 | 1.44 | 13.1 | inactive |
| TKTL2 | 3 | 1.24 | 11.7 | inactive |
| MN1 | 1 | 1.4 | 12.8 | inactive |
| MN1 | 2 | -0.719 | -2.09 | inactive |
| MN1 | 3 | 0.931 | 9.52 | inactive |
| RGCC | 1 | 0.325 | 5.25 | inactive |
| RGCC | 2 | -0.856 | -3.05 | inactive |
| RGCC | 3 | 1.92 | 16.5 | inactive |
| IL24 | 1 | -1.01 | -4.14 | inactive |
| IL24 | 2 | -0.124 | 2.1 | inactive |
| IL24 | 3 | -1.08 | -4.61 | inactive |
| MTA1 | 1 | -0.808 | -2.72 | inactive |
| MTA1 | 2 | -0.932 | -3.59 | inactive |
| MTA1 | 3 | -0.356 | 0.464 | inactive |
| TANC1 | 1 | 0.0717 | 3.47 | inactive |
| TANC1 | 2 | -0.123 | 2.1 | inactive |
| TANC1 | 3 | 5.42 | 41.1 | active |
| DDX52 | 1 | 0.703 | 7.91 | inactive |
| DDX52 | 2 | 0.0753 | 3.5 | inactive |
| DDX52 | 3 | 1.36 | 12.5 | inactive |
| LY6S-AS1 | 1 | -0.385 | 0.262 | inactive |
| LY6S-AS1 | 2 | 0.139 | 3.94 | inactive |
| LY6S-AS1 | 3 | -0.652 | -1.62 | inactive |

Reformatted: results already given
gene | siRNA no. | G2 robust z-score | G2 cells, % of GMNN control | Call
HSPB3 | 2 | 0.649 | 7.53 | inactive
HSPB3 | 3 | -0.305 | 0.82 | inactive
CD22 | 1 | -0.615 | -1.36 | inactive
CD22 | 2 | 0.195 | 4.34 | inactive
CD22 | 3 | 1.22 | 11.6 | inactive
EAPP | 1 | 0.316 | 5.19 | inactive
